The results in this text go back to paper PMC12107940.

These are yes or no findings as the source states them, for the method shown. In cells and extracts the contact can be indirect. Some entries that bind do so weakly or less than the wild type.

For the assay, the target named is T1, TRIM29 (human (endogenous in HCC1806)), Q14134.
T1 chain: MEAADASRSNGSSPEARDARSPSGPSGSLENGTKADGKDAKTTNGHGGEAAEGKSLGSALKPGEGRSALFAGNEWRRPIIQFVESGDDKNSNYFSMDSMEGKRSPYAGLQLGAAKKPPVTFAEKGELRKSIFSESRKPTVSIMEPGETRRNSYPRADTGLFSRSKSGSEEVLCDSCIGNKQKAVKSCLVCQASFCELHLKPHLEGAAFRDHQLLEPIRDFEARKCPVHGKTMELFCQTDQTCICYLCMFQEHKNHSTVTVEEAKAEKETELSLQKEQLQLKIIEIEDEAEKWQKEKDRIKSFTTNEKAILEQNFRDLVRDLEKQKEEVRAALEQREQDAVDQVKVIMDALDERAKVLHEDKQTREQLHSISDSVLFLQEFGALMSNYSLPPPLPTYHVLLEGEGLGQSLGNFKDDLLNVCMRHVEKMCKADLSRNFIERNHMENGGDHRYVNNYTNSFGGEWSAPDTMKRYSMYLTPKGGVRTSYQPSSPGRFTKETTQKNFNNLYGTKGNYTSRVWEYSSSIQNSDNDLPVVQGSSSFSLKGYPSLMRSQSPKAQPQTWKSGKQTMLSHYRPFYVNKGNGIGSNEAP
Briefly: co-IP; immunoprecipitation with TRIM29, immunoblot for β-catenin; endogenous proteins in HCC1806 and carboplatin-resistant HCC1806-CarboR cells. The note with it: remark: other sources report otherwise.

B1: β-catenin, P35222 1-781 (protein)
chain: MATQADLMELDMAMEPDRKAAVSHWQQQSYLDSGIHSGATTTAPSLSGKGNPEEEDVDTSQVLYEWEQGFSQSFTQEQVADIDGQYAMTRAQRVRAAMFPETLDEGMQIPSTQFDAAHPTNVQRLAEPSQMLKHAVVNLINYQDDAELATRAIPELTKLLNDEDQVVVNKAAVMVHQLSKKEASRHAIMRSPQMVSAIVRTMQNTNDVETARCTAGTLHNLSHHREGLLAIFKSGGIPALVKMLGSPVDSVLFYAITTLHNLLLHQEGAKMAVRLAGGLQKMVALLNKTNVKFLAITTDCLQILAYGNQESKLIILASGGPQALVNIMRTYTYEKLLWTTSRVLKVLSVCSSNKPAIVEAGGMQALGLHLTDPSQRLVQNCLWTLRNLSDAATKQEGMEGLLGTLVQLLGSDDINVVTCAAGILSNLTCNNYKNKMMVCQVGGIEALVRTVLRAGDREDITEPAICALRHLTSRHQEAEMAQNAVRLHYGLPVVVKLLHPPSHWPLIKATVGLIRNLALCPANHAPLREQGAIPRLVQLLVRAHQDTQRRTSMGGTQQQFVEGVRMEEIVEGCTGALHILARDVHNRIVIRGLNTIPLFVQLLYSPIENIQRVAAGVLCELAQDKEAAEAIEAEGATAPLTELLHSRNEGVATYAAAVLFRMSEDKPQDYKKRLSVELTSSLFRTEPMAWNETADLGLDIGAQGEPLGYRQDDPSYRSFHSGGYGQDALGMDPMMEHEMGGHHPGADYPVDGLPDLGHAQDLMDGLPPGDSNQLAWFDTDL
For the molecule B1, the binding result is reported as “binds”.
